The text below walks through data of publication PMC8654301.

The target of the assay is T1, TREM-2 (endogenous, CD4+ T cells and lung tissue) (human (endogenous in CD4+ T cells and lung tissue)) (UniProt Q9NZC2).
T1 sequence: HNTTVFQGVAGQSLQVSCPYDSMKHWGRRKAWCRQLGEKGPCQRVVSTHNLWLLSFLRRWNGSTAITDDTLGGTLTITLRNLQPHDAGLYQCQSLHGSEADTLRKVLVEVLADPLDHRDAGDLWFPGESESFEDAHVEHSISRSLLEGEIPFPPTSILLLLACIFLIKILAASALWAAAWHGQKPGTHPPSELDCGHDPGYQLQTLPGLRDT
Nature of the assay: co-IP.

Results are given in words; binding and its absence hold for the method and conditions named. In cells and extracts the contact can be indirect. Some entries that bind do so weakly or less than the wild type.

Take “SARS-CoV-2 M protein on pseudovirus (VSV-M) (from UniProt P0DTC5 1-222)”: the binding entry is “binds”.
